Patent US6620914, “Transcription factor islet-brain 1 (IB1)” (Gerard)

Amino acid sequences for entries named in this document (tags omitted). A change or cut given only in a name is not applied to a line headed by its entry.
UniProt Q9R237: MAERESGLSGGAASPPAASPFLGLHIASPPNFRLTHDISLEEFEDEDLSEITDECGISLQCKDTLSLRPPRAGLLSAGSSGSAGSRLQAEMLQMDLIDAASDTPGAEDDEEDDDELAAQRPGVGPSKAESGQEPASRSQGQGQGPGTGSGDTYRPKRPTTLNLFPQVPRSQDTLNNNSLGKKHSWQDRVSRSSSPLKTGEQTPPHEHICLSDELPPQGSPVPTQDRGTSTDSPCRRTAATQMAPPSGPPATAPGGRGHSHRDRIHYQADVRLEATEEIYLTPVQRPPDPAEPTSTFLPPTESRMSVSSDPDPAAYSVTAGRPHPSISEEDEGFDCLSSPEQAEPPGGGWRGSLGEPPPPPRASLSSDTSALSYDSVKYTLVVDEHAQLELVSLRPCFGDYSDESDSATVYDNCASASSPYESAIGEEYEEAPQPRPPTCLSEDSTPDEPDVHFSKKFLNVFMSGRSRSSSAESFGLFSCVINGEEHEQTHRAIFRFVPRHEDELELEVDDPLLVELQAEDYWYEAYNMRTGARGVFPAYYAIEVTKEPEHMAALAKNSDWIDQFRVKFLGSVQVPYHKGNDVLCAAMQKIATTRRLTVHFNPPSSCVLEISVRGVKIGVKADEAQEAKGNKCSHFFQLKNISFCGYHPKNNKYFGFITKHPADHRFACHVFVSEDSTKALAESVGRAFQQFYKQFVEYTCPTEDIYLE

Columns and labels:
[1] = target: T1, IB1 expressed in betaTC3 cells (Rattus) (UniProt Q9R237); experiment: activity in cells; settings: luciferase transactivation in betaTC3; absent in InR1-G9; protein in cells; variant of RIPE3; only the site is given
T1 sequence (limits assumed): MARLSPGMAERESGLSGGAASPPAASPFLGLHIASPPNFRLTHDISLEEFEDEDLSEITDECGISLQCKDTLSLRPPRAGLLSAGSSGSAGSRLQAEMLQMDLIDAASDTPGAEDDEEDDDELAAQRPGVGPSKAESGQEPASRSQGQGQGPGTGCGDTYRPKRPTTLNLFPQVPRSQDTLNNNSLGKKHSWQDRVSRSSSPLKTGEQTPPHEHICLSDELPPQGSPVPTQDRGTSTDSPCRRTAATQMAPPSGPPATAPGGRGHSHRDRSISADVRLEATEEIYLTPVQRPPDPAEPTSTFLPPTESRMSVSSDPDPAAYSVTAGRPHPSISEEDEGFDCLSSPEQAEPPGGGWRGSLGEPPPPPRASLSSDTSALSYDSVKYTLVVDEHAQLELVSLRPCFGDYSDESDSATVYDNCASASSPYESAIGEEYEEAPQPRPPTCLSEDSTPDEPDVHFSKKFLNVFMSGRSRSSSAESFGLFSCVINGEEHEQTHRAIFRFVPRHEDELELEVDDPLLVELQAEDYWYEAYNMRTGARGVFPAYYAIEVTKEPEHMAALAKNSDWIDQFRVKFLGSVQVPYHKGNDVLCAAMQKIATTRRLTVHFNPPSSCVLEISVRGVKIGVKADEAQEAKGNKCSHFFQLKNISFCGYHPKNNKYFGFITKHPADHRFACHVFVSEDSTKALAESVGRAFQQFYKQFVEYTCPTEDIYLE

[2] = system: IB1/GTII- and RIPE3-binding activity in betaTC3 nuclear extract (Mus musculus); experiment: EMSA; settings: protein in an extract; label: 32P
IB1 1-280 (Rattus) = target: T2, IB1 1-280 (Rattus) (UniProt Q9R237); experiment: binding assay; settings: SouthWestern; purified recombinant protein; label: 32P
T2 sequence: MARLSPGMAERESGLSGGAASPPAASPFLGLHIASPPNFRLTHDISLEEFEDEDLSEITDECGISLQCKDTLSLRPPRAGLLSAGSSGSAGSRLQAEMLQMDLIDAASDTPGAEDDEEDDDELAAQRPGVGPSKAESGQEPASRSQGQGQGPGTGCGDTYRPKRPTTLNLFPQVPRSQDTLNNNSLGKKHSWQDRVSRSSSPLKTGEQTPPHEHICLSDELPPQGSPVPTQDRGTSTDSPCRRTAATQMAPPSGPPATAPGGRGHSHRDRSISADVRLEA

Sequence | activity on this sequence [1] | binding result [2] | binding result (IB1 1-280 (Rattus))
GATCTGGAAACTGCAGCTTCAGCCCCTCTGGCCATCTGCTGATCCG (double strand) [5xRIPE3 SV40 minimal promoter luciferase reporter] | 5 fold | – | –
GATCTGGAAACTGCAGCTTCAGCCCCTCTGGCCATCTGCTGATCCG (double strand) [RIPE3] | – | binds | –
GTAAAGGGTGTATTGATTGGATTACCATCAATACTCAGCTTCT (double strand) [GTII] | – | binds | no binding

For some of these results: Protein sequences can lack the tags named with them. For some of these results: The exact form of at least one protein or probe is not confirmed. For some of these results: No signal at the amounts used counts as a negative. For some of these results: Results from cells or extracts need not show a direct contact.
